Source: the supplement of paper PMC5836539
± gives the standard deviation of the averaged measurements. Single values are uncertain here, since repeats match poorly.

The chains behind the UniProt entries cited, without tags or fusion partners. Where a name states a change or a piece, a line headed by the entry shows the natural chain unless it says otherwise.
UniProt P09382, whole entry: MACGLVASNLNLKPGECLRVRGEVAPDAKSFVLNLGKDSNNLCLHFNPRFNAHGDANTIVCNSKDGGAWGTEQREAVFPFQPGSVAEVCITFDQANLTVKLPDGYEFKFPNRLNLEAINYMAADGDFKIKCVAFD
UniProt Q15019: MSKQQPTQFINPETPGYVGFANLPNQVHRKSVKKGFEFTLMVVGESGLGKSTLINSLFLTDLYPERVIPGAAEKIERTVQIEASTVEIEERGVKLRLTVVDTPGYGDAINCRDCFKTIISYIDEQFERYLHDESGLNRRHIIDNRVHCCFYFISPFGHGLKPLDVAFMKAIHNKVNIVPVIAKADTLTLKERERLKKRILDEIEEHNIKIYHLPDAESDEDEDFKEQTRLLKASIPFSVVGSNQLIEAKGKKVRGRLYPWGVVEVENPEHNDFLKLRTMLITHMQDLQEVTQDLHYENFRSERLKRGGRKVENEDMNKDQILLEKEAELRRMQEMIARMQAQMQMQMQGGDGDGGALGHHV
UniProt P24534: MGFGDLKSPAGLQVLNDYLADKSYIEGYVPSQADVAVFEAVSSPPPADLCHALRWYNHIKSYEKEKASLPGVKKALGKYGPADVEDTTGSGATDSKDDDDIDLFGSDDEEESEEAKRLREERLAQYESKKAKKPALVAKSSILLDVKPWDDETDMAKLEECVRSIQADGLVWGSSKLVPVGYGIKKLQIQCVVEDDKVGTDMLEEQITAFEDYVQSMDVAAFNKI
UniProt P17812: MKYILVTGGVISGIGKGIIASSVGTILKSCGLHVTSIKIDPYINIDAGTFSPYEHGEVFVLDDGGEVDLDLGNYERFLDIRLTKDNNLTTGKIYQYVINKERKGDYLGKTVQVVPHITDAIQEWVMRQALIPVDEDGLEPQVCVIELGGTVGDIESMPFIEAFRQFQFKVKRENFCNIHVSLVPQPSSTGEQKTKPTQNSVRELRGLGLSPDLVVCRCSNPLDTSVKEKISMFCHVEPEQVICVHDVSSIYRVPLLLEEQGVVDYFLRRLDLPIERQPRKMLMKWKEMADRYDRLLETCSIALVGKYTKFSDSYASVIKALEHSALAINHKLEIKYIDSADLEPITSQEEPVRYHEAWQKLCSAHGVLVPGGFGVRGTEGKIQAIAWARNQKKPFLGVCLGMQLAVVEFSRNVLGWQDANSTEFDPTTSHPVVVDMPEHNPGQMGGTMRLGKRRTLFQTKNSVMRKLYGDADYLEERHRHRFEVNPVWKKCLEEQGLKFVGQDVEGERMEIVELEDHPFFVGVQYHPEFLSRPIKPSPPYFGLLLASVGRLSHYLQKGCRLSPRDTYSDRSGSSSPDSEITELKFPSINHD
UniProt P07355, whole entry, looked up: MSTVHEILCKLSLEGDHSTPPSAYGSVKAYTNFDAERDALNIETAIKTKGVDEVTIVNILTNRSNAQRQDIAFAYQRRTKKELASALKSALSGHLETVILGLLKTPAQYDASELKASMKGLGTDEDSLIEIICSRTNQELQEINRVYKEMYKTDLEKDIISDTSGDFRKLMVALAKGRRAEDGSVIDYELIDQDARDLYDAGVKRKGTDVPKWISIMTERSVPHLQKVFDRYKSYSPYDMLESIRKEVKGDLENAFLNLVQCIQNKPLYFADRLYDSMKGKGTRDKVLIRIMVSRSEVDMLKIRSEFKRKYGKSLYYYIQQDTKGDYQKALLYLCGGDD
UniProt P46937, whole entry, looked up: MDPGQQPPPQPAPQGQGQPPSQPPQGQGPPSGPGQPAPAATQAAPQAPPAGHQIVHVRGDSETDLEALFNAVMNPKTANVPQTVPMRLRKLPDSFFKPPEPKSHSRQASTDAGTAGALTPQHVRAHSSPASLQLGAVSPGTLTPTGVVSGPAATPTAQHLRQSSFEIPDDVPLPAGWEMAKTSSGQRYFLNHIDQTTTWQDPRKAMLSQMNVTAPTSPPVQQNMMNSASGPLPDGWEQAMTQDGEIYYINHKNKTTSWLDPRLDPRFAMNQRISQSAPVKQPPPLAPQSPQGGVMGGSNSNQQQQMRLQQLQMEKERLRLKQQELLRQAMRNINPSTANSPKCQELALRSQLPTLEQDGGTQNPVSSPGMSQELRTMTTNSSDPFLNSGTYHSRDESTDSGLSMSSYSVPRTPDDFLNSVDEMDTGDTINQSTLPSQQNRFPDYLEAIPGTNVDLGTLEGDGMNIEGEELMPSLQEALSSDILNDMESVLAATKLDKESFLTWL
UniProt P42566: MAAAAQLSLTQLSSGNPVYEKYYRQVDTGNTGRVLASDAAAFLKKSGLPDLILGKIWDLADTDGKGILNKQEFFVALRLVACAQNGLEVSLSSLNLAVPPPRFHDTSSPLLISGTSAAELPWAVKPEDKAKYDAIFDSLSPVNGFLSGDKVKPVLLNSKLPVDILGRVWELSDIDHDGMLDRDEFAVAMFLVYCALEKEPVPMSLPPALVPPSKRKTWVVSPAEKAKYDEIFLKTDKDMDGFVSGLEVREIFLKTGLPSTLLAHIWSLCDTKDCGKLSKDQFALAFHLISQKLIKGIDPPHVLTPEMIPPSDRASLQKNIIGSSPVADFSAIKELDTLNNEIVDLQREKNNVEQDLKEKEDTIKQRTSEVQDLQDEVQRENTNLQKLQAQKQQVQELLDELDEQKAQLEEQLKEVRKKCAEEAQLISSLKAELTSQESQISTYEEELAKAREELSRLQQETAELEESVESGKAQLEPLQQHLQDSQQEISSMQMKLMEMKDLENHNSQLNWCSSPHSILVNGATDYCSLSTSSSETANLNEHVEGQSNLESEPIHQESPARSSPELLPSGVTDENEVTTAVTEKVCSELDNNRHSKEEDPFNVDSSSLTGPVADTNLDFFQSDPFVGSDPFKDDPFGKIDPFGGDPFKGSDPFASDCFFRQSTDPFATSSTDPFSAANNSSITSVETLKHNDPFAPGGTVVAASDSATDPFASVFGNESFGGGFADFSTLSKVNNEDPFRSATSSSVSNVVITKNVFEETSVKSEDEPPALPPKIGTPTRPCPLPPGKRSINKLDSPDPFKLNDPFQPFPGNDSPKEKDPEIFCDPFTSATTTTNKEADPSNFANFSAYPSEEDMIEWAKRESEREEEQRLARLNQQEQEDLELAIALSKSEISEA
UniProt A0JNW5: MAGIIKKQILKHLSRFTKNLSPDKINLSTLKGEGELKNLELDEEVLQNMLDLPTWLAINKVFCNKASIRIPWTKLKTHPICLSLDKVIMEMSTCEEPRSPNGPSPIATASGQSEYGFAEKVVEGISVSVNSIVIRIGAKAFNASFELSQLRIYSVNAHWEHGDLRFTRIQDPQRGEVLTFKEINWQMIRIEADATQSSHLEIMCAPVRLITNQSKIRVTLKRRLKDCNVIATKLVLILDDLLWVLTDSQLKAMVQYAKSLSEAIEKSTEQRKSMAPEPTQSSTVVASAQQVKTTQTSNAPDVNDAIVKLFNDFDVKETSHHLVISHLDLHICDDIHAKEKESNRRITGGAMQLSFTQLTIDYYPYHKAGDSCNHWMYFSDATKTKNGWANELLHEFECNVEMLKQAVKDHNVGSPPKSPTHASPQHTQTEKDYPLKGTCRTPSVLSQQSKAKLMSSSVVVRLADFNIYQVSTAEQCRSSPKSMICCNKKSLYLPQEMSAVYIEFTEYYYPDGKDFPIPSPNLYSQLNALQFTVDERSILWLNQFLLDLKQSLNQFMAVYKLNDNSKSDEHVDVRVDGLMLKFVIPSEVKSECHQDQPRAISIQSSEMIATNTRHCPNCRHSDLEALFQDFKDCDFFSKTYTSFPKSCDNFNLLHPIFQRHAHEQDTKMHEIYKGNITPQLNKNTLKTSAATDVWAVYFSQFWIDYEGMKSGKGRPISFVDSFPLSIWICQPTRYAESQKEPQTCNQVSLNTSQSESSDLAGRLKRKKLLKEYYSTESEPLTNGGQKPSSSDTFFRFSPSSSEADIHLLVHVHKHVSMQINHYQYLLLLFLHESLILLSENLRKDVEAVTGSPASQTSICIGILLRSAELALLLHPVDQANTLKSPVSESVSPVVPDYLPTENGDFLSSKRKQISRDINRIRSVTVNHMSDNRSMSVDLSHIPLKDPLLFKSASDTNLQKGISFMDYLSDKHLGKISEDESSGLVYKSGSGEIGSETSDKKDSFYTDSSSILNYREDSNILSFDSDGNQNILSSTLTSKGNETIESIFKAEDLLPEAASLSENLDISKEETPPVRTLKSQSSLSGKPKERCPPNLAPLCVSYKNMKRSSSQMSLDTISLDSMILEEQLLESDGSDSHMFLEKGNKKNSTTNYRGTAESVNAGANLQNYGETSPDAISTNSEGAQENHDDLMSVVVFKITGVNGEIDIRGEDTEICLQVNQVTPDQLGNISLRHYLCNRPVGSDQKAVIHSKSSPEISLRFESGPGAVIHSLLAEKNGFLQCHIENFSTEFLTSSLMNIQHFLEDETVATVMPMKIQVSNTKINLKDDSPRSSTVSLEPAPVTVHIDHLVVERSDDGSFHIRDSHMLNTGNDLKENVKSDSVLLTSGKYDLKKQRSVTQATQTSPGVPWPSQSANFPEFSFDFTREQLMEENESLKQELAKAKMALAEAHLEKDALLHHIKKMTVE
UniProt Q5VTR2, whole entry: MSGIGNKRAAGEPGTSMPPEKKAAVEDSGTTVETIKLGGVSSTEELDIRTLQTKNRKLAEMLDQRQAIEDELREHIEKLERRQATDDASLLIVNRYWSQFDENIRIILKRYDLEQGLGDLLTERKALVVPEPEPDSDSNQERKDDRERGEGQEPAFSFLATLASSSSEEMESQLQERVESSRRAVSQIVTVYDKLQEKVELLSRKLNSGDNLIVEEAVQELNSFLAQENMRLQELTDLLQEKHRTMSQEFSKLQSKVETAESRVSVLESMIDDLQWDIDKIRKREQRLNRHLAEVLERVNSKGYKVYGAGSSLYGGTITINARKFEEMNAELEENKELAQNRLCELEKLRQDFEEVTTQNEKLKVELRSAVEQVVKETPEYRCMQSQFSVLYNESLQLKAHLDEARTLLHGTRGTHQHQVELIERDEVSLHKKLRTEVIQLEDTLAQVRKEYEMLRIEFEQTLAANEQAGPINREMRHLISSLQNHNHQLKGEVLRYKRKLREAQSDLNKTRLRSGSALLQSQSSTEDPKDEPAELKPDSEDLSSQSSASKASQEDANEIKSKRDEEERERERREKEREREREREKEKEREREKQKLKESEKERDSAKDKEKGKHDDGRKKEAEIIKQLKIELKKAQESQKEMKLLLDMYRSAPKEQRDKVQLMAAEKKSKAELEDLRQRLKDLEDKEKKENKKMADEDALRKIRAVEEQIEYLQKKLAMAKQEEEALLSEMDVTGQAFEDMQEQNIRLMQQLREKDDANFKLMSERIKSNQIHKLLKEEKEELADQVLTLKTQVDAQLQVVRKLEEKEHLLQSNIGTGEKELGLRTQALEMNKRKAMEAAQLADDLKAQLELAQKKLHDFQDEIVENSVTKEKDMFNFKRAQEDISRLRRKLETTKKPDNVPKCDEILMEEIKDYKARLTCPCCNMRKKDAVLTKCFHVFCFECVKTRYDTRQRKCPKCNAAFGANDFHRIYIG
UniProt P22314: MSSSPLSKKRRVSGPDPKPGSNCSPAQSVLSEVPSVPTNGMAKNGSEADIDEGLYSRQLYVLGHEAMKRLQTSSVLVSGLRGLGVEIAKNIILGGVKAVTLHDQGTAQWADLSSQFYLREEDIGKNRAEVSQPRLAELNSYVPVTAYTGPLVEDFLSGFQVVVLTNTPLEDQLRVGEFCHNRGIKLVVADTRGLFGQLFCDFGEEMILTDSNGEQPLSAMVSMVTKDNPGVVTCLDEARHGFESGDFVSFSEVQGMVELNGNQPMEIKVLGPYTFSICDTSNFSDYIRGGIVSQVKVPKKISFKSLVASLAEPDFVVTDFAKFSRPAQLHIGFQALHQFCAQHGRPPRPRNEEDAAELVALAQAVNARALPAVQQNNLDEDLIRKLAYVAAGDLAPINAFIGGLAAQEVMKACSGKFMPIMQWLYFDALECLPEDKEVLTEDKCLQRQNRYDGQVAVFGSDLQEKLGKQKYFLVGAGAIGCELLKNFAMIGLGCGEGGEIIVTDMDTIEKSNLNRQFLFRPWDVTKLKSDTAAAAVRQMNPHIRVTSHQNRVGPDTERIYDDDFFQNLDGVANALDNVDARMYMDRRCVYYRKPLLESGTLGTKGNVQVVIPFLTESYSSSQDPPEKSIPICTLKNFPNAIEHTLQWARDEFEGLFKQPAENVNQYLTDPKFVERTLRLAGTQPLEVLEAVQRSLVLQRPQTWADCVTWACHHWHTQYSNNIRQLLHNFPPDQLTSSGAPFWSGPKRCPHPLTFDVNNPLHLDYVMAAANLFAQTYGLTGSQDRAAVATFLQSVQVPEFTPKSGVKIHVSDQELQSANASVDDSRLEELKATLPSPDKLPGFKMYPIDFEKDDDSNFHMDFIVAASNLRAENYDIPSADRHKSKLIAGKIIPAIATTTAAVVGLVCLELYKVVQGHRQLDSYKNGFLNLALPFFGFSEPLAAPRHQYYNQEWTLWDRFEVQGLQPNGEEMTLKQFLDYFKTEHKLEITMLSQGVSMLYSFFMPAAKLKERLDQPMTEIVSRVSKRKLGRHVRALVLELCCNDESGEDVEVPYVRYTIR

How the values were obtained:
XL888 [1] = compound: T1, CC[C@@H](C)Nc1cc(C(=O)N[C@H]2C[C@H]3CC[C@@H](C2)N3c2ccc(C(=O)C3CC3)cn2)c(C)cc1C(N)=O [XL888]; experiment: phosphopeptide melting temperature shift (XL888 minus DMSO); higher = stabilised by drug treatment; conditions: 100 µM; treatment time 2 h; layout: intact cells; SK-Mel 28
Description: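 Phospho-TPP in intact SK-Mel 28 cells treated with 100 uM XL888 or DMSO for 2 h, heated at 10 temperatures (37-67 C) for 3 min, soluble fraction TMT10plex-labelled and TiO2 phospho-enriched. Melting curves were fitted per phosphopeptide; the value is the melting point difference (drug minus vehicle) in each of two biological replicates.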

XL888 [2] = compound: T1, XL888; experiment: as above; conditions: 100 µM; treatment time 2 h; layout: intact cells; SK-Mel 24
Description: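 Phospho-TPP in intact SK-Mel 24 cells treated with 100 uM XL888 or DMSO for 2 h, heated at 10 temperatures (37-67 C) for 3 min, soluble fraction TMT10plex-labelled and TiO2 phospho-enriched. Melting curves were fitted per phosphopeptide; the value is the melting point difference (drug minus vehicle) in each of two biological replicates.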

PAK4 phosphosite_474 (phosphosite position: 474) (UniProt O96013)
phosphopeptide melting temperature shift (XL888 [1]): -0.412 ± 0.92 °C
phosphopeptide melting temperature shift (XL888 [2]): -1.409 ± 0.0065 °C

LGALS1 phosphosite_30 (phosphosite position: 30) (UniProt P09382)
phosphopeptide melting temperature shift (XL888 [1]): -0.155 °C
phosphopeptide melting temperature shift (XL888 [2]): -0.907 °C

UniProt Q15019_phosphosite_218 (phosphosite position: 218)
phosphopeptide melting temperature shift (XL888 [1]): 0.663 ± 0.61 °C
phosphopeptide melting temperature shift (XL888 [2]): 0.506 ± 0.28 °C

EEF1B2 phosphosite_106 (phosphosite position: 106) (UniProt P24534)
phosphopeptide melting temperature shift (XL888 [1]): 1 ± 0.49 °C
phosphopeptide melting temperature shift (XL888 [2]): -0.0126 ± 0.051 °C

UniProt P17812_phosphosite_562 (phosphosite position: 562)
phosphopeptide melting temperature shift (XL888 [1]): -1.72 °C
phosphopeptide melting temperature shift (XL888 [2]): -3.08 °C

ANXA2 phosphosite_127 (phosphosite position: 127) (UniProt P07355)
phosphopeptide melting temperature shift (XL888 [1]): 0.731 ± 0.036 °C
phosphopeptide melting temperature shift (XL888 [2]): -0.107 °C

UniProt P46937-5_phosphosite_109 (phosphosite position: 109)
phosphopeptide melting temperature shift (XL888 [1]): 6.85 °C
phosphopeptide melting temperature shift (XL888 [2]): 4.08 °C

UniProt P29590-2_phosphosite_527 (phosphosite position: 527)
phosphopeptide melting temperature shift (XL888 [1]): 0.409 ± 0.4 °C
phosphopeptide melting temperature shift (XL888 [2]): 2.36 °C

UniProt Q8ND56-2_phosphosite_192 (phosphosite position: 192)
phosphopeptide melting temperature shift (XL888 [1]): 0.581 ± 0.75 °C
phosphopeptide melting temperature shift (XL888 [2]): 1.08 ± 0.9 °C

EPS15 phosphosite_796 (phosphosite position: 796) (UniProt P42566)
phosphopeptide melting temperature shift (XL888 [1]): -0.545 °C
phosphopeptide melting temperature shift (XL888 [2]): 2.01 ± 0.66 °C

UniProt Q9Y6M1-1_phosphosite_164 (phosphosite position: 164)
phosphopeptide melting temperature shift (XL888 [1]): 1.24 ± 1.5 °C
phosphopeptide melting temperature shift (XL888 [2]): -0.272 °C

UHRF1BP1L phosphosite_418 (phosphosite position: 418) (UniProt A0JNW5)
phosphopeptide melting temperature shift (XL888 [1]): -0.15 ± 0.11 °C
phosphopeptide melting temperature shift (XL888 [2]): 0.127 °C

UniProt Q99543-2_phosphosite_47 (phosphosite position: 47)
phosphopeptide melting temperature shift (XL888 [1]): -1.87 ± 1.7 °C
phosphopeptide melting temperature shift (XL888 [2]): 0.239 °C

ASAP1 phosphosite_717 (phosphosite position: 717) (UniProt Q9ULH1)
phosphopeptide melting temperature shift (XL888 [1]): 0.36 ± 0.18 °C
phosphopeptide melting temperature shift (XL888 [2]): 0.469 °C

RNF20 phosphosite_138 (phosphosite position: 138) (UniProt Q5VTR2)
phosphopeptide melting temperature shift (XL888 [1]): 2.323 ± 0.005 °C
phosphopeptide melting temperature shift (XL888 [2]): 2.6 °C

CTR9 phosphosite_925 (phosphosite position: 925) (UniProt Q6PD62)
phosphopeptide melting temperature shift (XL888 [1]): -0.808 °C
phosphopeptide melting temperature shift (XL888 [2]): -0.324 °C

UniProt P11137-3_phosphosite_1645 (phosphosite position: 1645)
phosphopeptide melting temperature shift (XL888 [1]): 2 °C
phosphopeptide melting temperature shift (XL888 [2]): 1.21 °C

TFIP11 phosphosite_98 (phosphosite position: 98) (UniProt Q9UBB9)
phosphopeptide melting temperature shift (XL888 [1]): 1.28 ± 0.38 °C
phosphopeptide melting temperature shift (XL888 [2]): 0.657 °C

UniProt Q53GS9-3_phosphosite_46 (phosphosite position: 46)
phosphopeptide melting temperature shift (XL888 [1]): -1.28 °C
phosphopeptide melting temperature shift (XL888 [2]): -0.0975 ± 0.94 °C

UBA1 phosphosite_13 (phosphosite position: 13) (UniProt P22314)
phosphopeptide melting temperature shift (XL888 [1]): 0.144 ± 0.87 °C
phosphopeptide melting temperature shift (XL888 [2]): 0.241 ± 0.59 °C

UniProt Q6NYC8_phosphosite_145 (phosphosite position: 145)
phosphopeptide melting temperature shift (XL888 [1]): 1.27 ± 0.43 °C
phosphopeptide melting temperature shift (XL888 [2]): 0.674 °C
